Results: PMC6401474
These are yes or no findings as the source states them, for the method shown. In cells and extracts the contact can be indirect. Some results given as binding are weak or reduced against the parent protein; the word gives no strength. Tags and fused reporters may be left off the sequences shown.

Protein sequences, listed by entry. Tags and fused reporters are not part of them.
UniProt P15682: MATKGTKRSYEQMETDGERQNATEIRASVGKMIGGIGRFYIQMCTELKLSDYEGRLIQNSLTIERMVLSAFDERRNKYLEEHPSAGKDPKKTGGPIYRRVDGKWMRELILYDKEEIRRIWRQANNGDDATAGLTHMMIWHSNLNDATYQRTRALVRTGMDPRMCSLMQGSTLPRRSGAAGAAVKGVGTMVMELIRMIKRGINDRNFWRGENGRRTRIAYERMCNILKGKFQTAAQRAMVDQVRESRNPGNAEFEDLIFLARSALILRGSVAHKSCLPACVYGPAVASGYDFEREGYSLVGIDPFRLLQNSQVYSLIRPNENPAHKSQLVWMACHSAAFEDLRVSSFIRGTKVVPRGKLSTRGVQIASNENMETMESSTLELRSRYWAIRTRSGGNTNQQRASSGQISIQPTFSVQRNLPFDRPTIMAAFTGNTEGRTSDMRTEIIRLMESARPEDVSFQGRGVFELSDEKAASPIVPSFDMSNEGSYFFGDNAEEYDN

Target: T1, Flag-TRIM14 (UniProt Q14142)
T1 sequence: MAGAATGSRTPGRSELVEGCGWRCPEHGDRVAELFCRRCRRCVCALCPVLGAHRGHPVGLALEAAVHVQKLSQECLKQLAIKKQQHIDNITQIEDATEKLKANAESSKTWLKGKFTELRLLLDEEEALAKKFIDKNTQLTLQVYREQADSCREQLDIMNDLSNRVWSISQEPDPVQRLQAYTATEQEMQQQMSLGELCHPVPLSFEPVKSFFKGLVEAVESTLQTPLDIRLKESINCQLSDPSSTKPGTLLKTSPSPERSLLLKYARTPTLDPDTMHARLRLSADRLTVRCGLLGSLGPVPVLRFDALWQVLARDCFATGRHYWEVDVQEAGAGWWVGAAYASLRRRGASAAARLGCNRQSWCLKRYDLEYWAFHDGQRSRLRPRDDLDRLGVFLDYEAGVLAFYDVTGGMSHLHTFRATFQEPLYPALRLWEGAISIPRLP
Assay: co-IP

For GlucC-NP (from UniProt P15682 1-498), the binding was “binds”.
